Results reported in patent US20020151006A1 (ROCKEFELLER UNIVERSITY, published 2002).
Results are given in words; binding and its absence hold for the method and conditions named. Some results given as binding are weak or reduced against the parent protein; the word gives no strength. Tags and fused reporters may be left off the sequences shown.

Amino acid sequences for entries named in this document (tags omitted). Residues count along the entry.
UniProt P00579, residues 568-600: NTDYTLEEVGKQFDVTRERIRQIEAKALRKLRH

Target: T1, bacteriophage T4 antisigma protein AsiA with a C-terminal hexahistidine tag (bacteriophage T4) (UniProt P32267)
T1 sequence: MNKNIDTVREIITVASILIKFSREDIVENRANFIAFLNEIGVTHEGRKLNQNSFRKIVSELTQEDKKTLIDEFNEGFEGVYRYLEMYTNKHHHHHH
Test: Ni2+-NTA agarose co-immobilization

**Q.** How did the binding turn out when “synthetic peptide corresponding to sigma-70 amino acids 568-600 (from UniProt P00579 568-600)” was run?
**A.** The binding was “binds”.
